Assay results taken from article PMC9083066.

System: T1, FabT (Enterococcus faecalis)
T1 sequence (looked up): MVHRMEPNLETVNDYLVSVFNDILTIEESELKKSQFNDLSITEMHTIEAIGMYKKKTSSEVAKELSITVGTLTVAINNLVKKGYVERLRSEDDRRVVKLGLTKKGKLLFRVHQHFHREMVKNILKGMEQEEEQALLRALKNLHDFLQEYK
Assay: EMSA
Conditions: recombinant protein, residues 1-150, protein details: His tag (pET28b NdeI/EcoRI, N-terminal), label: none (SYBR Green I stain), probe letters rebuilt from the primers and the genome

| Sequence | binding result (no ligand, no detectable binding) | binding result (no ligand) | binding result (oleoyl-AcpA (P3), weak enhancement only at 0.25 and 0.5 uM, lost at higher concentration) | binding result (oleoyl-AcpB (P2), binding enhanced) | binding result (palmitoyl-AcpB (P2), enhanced, less than with oleoyl-AcpB) |
| --- | --- | --- | --- | --- | --- |
| GCCTAATGAATTCAAAAGTTACTGATGAAAACTTTAAATTTTCTGTCAGTAACTTTTTTTGTTGAAATTATTTCTGTCAGTAGTTTGGGAAGGCAAATTTTACTGACAGAAACTAATATTTTTTATAAAAATTGAGCAATGATGACGTTTTCTAAAAATTATTACTTGCAAATCATTCTAAAAAATAATATAATTTGATACAGAAAACCATTTGCAATATAAAAACAAATTGAGTTCATCTTGCGAGAAAGAAAAAATAGAATAATAAATCAGGGGGTAAGTTGATGATGTTTTTTTGCATCAGTTTATCCCCTATCTAAATGTAATAATAGAATTTCATAAGGGGGTTTTATTGATTTCAATTTCTTTTTTTTTCGTAATGTCTAAAGTCGGACTCACATCTAAATAATGAAGAGGATGACAGATGAAA (double strand) [L. lactis fabT promoter] | no binding |  |  |  |  |
| GTACGAATTCTGCAGTAATACATGAAAATAGGGGGCTGGGACATTTAATTGCTAAATGACCCAGTCCCTAAAAAAACAAGTAAATAAGCCGTAAAAATCCTTTTTTACTTGAATGAAGTGTACTTATCTTAGAACTAAAGGACGTATAAAATCAATGTCGACGGATCCTGAC (double strand) [E. faecalis fabK promoter] |  | no binding |  |  |  |
| GTCAGAATTCTGCAGCATATAAAATCTCCTTTAATAAAAAATTTTTGTTGATAGAATAGGCTTTTCTTCATCAAAATGTAAAAGTTACATTTATTGAGTTGACGAATAAAATTTCAACTGGTATTATCTGTGTGAGAATGATAACAAAATCTTCTCAATTTTCTAATCTTGAAAAAAACAGACATTTTTCCTGATGTCTGAATTATTAACCAAAATACTTTGAAAGTCAAACTATTTTTCTTATTTTTTGAGAAAAAGTGCTGGAAACCGCATGAAATAATAGTTTGATAATCAAAATAAACTCGGAGGTACAGTATGTCGACGGATCCTGAC (double strand) [E. faecalis fabI/fabO promoter] |  | binds |  |  |  |
| GTCAGAATTCTGCAGTAATTAATCGTCCTACATTTTAATAAGGGAGTGGAGTAGAAGCACCAAAGCTTCTGGTTCACTCTCTTCTCGTATTATCCAGTCAAGTTGTAGCAATAGCTTAGTGGGAATTTAAGAATTATATAACAAAAATCACTGGCACTTCTCAATCAGGGGAGTGCCAGTGATGCTTTTTAGTTGCACTTCTTTCCTTTTTCTGTGAAAATAGTTTGGGTATCAAAGTAATTGATCCTTTTTTTAAAAGCCTCGTCCCTTGAAAATGCGCCTTTTTTGAAATATTTGAAGAATATTTCATTAAAAATATAGAAAATTCTCTTGCATTCTTTGCTTATTTACGATATAGTTTGAACATCAAATGTTTTGATAATCAAAGTATATGGATGTCGACGGATCCTGAC (double strand) [E. faecalis fabT promoter] |  | binds | binds | binds | binds |

No signal at the amounts used counts as a negative. Tags and fusion partners may be left off the protein sequences shown. The exact form of at least one protein or probe is not confirmed.
